Experimental data: the supplement of paper PMC6078165
The reference is the same well before dosing, and untreated signal decays as well.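 Fibroblast labels denote human fibroblasts, mainly primary ones from uterus (C12385, HUF), lung (H6013), bone (Hs27A), adrenal (HADF) and skin (WS1), plus mammary HMF and breast cancer-associated Hs343T. Cancer cells are basal-like or mesenchymal-like triple-negative breast cancer lines. A hit is a response shift exceeding 3x replicate standard deviation. The tissue of the other fibroblasts is not given here.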 Numbered stars: 1 amine (or outer) side, 2 acyl side, 3 side chain; on linkers, the order of the positions; unused ones are H or OH. Bridge positions count the residues as written; N and C are the ends. Square brackets hold non-standard residues; d marks the D form. Peptide text beside a SMILES is read from it. I, II: the chains in the order shown. Actinocin(9to1) = Cc1c2oc3c(C)ccc(C(=O)[*:1])c3nc-2c(C(=O)[*:2])c(N)c1=O; NMeV = CN[C@H](C(=O)O)C(C)C; Sar = CNCC(=O)O

Tested on: MDAMB436
Assay: relative JC-1 red fluorescence (viability) vs pre-drug, coculture with fibroblast (fraction); higher = more viable cancer cells
Settings: 10 µM
Experimental: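 JC-1 labelled TNBC cells cocultured 1:1 (1,500 cells each) with CellTrace Violet stained primary or stromal fibroblasts in 384-well plates in FluoroBrite medium, treated with one of 42 anticancer drugs at 0.1, 1, 10 or 100 uM. JC-1 red fluorescence (mitochondrial integrity in cancer cells only) was read by plate reader every 8 h for 72 h. Values are normalised to each well's pre-drug value. The stock of one drug was tenfold lower, so its dose labels may be too high.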

Cc1c2oc3c(C)ccc(C(=O)N[C@@H]4C(=O)N[C@H](C(C)C)C(=O)N5CCC[C@H]5C(=O)N(C)CC(=O)N(C)[C@@H](C(C)C)C(=O)O[C@@H]4C)c3nc-2c(C(=O)N[C@@H]2C(=O)N[C@H](C(C)C)C(=O)N3CCC[C@H]3C(=O)N(C)CC(=O)N(C)[C@@H](C(C)C)C(=O)O[C@@H]2C)c(N)c1=O [Dactinomycin] (I: T[dV]P[Sar][NMeV] / II: T[dV]P[Sar][NMeV]; ester I:1-I:C, II:1-II:C; linker I:N-II:N via Actinocin(9to1))
relative JC-1 red fluorescence
Settings | 8 h | 16 h | 24 h | 32 h | 40 h
coculture fibroblast: C12385 | 0.801 | 0.776 | 0.76 | 0.698 | 0.674
coculture fibroblast: H6013 | 0.845 | 0.816 | 0.797 | 0.799 | 0.787
coculture fibroblast: H6019 | 0.7564 | 0.729 | 0.719 | 0.664 | 0.639
coculture fibroblast: H6076 | 0.746 | 0.676 | 0.67 | 0.63 | 0.633
coculture fibroblast: H6231 | 0.67 | 0.646 | 0.732 | 0.663 | 0.674
coculture fibroblast: HADF | 0.839 | 0.854 | 0.852 | 0.858 | 0.88
coculture fibroblast: HCFa | 0.811 | 0.791 | 0.768 | 0.745 | 0.756
coculture fibroblast: HCPF | 0.723 | 0.683 | 0.709 | 0.656 | 0.663
coculture fibroblast: HHSteC | 0.834 | 0.843 | 0.843 | 0.836 | –
coculture fibroblast: HMF | 0.764 | 0.75 | 0.796 | 0.778 | –
coculture fibroblast: HPFa | 0.8321 | 0.8209 | 0.818 | 0.798 | –
coculture fibroblast: HUF | 0.83 | 0.77 | 0.745 | 0.676 | –
coculture fibroblast: Hs5 | 0.793 | 0.747 | 0.74 | 0.689 | –
coculture fibroblast: Hs27A | 0.811 | 0.812 | 0.815 | 0.813 | –
coculture fibroblast: Hs343T | 0.748 | 0.696 | 0.708 | 0.67 | –
coculture fibroblast: WS1 | 0.79 | 0.75 | 0.736 | 0.673 | –
